Results: article doi:10.1101/525527
Results are given in words; binding and its absence hold for the method and conditions named. Binding seen in cells or lysates may run through a third protein. Some binding calls cover weakened binding; strength is not graded here.

By UniProt entry, the sequences of proteins in these tests, tags left out.
UniProt P35637: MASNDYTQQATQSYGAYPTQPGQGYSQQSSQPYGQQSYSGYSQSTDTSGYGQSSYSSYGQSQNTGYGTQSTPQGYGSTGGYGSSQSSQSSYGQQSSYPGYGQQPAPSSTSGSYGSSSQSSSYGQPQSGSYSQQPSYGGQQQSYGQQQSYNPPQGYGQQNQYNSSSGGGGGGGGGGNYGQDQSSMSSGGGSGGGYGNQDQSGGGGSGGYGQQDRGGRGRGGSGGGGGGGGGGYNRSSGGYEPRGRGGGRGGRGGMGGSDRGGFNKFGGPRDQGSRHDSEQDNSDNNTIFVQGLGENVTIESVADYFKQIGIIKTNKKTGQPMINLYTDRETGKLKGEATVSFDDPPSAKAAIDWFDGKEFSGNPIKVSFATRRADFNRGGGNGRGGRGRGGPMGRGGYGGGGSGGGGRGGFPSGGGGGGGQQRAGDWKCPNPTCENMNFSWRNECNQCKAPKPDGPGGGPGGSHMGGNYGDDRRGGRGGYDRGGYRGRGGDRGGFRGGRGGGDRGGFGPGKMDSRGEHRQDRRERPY

How the values were obtained:
[1] = target: AGO1 fused with C-terminal Flag- and HA-epitope tags (e-AGO1) (human) (UniProt Q9UL18); assay: co-IP
[2] = target: AGO2 fused with C-terminal Flag- and HA-epitope tags (e-AGO2) (UniProt Q9UKV8); assay: co-IP

HNRNPK (from UniProt P61978 1-463)
binding [1]: binds
binding [2]: no binding

FUS (from UniProt P35637 1-526)
binding [1]: binds
